Test results from the supplement of paper PMC10849652.
This is one part of the list.

The chains behind the UniProt entries cited, without tags or fusion partners. Where a name states a change or a piece, a line headed by the entry shows the natural chain unless it says otherwise.
UniProt O75923: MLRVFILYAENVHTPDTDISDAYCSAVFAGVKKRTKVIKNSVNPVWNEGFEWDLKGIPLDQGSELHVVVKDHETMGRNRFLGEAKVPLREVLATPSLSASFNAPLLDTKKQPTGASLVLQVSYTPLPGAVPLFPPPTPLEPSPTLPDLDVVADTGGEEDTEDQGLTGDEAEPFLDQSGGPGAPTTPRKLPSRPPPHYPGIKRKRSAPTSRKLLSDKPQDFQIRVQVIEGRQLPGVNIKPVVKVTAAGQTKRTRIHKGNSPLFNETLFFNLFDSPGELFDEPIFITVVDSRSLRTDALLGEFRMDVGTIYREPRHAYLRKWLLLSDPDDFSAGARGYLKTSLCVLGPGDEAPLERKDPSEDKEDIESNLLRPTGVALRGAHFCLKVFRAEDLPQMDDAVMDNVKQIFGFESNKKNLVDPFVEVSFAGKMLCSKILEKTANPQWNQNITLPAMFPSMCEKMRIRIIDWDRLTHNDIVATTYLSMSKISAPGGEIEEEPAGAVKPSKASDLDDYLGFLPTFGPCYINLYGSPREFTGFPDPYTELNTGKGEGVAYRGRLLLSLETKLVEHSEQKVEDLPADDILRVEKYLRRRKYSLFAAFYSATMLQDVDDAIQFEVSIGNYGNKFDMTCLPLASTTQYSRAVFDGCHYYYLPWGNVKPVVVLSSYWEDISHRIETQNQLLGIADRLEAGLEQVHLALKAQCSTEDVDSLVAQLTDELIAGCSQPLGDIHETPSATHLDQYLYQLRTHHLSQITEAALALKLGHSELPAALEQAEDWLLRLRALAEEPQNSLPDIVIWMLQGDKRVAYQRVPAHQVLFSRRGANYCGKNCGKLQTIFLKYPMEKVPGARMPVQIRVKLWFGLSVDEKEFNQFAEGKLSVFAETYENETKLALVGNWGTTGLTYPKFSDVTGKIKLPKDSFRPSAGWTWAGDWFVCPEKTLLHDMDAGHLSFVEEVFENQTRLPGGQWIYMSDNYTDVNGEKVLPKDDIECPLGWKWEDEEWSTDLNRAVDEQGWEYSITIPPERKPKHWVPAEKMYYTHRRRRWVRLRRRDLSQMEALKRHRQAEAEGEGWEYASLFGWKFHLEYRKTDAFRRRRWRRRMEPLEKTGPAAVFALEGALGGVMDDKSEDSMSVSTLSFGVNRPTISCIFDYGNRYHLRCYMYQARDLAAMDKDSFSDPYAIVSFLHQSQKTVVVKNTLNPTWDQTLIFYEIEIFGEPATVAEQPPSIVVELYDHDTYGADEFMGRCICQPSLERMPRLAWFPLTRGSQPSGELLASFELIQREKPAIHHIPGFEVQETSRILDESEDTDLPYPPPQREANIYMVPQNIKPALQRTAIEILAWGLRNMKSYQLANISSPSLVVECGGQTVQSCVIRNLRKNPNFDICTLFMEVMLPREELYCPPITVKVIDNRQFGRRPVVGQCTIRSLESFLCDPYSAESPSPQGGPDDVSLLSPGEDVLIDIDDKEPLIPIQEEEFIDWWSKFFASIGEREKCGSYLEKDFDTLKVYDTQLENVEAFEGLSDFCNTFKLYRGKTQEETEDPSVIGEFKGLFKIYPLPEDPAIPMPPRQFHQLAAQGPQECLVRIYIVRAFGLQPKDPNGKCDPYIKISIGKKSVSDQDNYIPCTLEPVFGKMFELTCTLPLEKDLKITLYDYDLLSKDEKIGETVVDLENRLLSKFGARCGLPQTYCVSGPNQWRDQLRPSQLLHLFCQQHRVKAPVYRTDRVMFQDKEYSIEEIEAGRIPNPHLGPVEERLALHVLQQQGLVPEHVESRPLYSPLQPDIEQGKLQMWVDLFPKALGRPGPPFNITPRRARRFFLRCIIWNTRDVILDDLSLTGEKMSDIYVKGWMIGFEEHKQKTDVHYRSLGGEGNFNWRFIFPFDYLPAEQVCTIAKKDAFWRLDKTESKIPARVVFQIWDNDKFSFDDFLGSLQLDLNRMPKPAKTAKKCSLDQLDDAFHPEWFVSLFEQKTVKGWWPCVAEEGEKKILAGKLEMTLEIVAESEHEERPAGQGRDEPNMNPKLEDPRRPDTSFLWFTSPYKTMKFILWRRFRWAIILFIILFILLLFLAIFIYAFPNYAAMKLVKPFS
UniProt O95905: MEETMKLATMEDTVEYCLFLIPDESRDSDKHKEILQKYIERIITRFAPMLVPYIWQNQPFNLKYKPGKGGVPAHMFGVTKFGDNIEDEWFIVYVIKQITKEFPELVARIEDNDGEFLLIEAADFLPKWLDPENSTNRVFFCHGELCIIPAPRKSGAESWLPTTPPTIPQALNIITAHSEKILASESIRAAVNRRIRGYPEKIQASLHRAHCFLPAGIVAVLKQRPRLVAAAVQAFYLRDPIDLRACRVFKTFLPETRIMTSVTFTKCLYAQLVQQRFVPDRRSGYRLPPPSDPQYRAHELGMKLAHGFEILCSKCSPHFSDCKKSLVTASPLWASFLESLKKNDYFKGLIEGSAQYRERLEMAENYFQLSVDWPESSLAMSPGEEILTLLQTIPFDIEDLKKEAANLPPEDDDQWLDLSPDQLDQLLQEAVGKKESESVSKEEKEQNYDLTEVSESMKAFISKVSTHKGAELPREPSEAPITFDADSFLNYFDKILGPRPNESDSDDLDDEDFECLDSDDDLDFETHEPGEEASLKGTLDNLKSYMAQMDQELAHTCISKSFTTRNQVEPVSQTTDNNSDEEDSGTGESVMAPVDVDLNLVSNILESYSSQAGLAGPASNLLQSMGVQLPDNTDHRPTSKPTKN
UniProt Q9UPQ8: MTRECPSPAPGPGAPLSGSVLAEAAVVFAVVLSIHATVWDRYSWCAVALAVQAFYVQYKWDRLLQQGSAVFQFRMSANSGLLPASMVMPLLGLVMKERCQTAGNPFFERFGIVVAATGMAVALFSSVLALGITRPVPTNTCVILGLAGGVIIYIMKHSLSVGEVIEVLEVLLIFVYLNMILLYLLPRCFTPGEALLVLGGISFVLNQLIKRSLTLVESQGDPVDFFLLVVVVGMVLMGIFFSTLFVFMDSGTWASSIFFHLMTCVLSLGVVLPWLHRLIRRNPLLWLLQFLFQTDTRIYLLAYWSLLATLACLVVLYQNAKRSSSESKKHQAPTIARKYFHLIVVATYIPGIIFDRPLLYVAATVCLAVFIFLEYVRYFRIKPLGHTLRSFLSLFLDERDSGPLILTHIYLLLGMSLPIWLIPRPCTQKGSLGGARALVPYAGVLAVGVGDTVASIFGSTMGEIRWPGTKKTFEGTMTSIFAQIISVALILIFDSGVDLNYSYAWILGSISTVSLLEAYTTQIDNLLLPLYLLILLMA
UniProt Q5VYK3, whole entry, looked up: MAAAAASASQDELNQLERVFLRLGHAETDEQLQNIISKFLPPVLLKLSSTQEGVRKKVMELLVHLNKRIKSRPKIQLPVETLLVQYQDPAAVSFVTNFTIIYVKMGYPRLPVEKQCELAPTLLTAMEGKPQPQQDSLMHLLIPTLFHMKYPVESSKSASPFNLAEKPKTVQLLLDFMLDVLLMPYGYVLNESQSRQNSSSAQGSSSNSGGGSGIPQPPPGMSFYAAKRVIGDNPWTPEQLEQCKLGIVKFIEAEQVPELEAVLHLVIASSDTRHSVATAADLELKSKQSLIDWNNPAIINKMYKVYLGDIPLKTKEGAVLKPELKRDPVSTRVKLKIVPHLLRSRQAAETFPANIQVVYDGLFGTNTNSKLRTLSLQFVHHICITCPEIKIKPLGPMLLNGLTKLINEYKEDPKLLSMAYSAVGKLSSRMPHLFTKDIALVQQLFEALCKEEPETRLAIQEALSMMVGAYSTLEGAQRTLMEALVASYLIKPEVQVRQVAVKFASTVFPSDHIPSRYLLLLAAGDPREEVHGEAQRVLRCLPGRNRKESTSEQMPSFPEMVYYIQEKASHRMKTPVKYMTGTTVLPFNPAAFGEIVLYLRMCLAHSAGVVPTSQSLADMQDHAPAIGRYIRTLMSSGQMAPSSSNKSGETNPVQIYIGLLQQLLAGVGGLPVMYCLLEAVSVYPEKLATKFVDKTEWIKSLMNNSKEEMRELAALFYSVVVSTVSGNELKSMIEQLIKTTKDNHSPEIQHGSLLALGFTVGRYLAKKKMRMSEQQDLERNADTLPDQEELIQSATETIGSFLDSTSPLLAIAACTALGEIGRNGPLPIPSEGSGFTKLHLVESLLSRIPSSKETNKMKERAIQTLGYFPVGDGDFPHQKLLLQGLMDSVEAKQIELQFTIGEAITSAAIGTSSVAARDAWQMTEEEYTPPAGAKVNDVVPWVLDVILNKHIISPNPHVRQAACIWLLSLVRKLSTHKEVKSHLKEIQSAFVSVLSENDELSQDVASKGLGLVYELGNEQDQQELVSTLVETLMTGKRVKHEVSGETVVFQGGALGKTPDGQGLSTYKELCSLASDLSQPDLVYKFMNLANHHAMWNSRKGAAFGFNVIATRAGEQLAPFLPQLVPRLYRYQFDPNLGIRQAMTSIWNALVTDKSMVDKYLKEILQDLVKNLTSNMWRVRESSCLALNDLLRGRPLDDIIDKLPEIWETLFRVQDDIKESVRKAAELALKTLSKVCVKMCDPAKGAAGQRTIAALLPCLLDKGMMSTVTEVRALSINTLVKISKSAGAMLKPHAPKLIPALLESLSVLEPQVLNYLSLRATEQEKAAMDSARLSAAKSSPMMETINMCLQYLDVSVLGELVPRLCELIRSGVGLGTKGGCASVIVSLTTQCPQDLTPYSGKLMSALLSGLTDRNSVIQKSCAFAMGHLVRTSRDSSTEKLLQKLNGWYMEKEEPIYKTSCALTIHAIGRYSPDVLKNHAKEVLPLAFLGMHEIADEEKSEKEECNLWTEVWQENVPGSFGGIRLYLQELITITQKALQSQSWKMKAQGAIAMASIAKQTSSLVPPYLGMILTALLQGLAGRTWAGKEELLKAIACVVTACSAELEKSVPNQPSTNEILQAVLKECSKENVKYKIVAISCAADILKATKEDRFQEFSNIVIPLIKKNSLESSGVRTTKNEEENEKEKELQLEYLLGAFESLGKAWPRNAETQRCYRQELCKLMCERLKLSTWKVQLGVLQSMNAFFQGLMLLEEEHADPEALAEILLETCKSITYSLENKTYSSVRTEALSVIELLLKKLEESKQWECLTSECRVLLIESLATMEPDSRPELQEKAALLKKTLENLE
UniProt P49184: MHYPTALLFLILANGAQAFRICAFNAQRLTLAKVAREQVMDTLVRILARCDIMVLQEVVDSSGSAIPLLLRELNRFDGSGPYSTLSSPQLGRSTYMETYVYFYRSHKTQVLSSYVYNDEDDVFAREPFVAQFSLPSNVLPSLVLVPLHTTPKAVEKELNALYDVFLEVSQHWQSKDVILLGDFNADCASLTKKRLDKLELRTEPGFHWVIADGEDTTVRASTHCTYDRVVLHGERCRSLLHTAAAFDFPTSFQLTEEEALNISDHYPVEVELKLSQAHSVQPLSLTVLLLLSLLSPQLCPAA
UniProt O95147: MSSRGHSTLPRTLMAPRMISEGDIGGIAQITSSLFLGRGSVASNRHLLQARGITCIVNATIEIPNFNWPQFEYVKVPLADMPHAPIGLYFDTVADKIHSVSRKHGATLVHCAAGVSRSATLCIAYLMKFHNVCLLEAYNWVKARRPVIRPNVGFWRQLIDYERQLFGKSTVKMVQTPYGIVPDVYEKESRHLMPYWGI
UniProt Q05193: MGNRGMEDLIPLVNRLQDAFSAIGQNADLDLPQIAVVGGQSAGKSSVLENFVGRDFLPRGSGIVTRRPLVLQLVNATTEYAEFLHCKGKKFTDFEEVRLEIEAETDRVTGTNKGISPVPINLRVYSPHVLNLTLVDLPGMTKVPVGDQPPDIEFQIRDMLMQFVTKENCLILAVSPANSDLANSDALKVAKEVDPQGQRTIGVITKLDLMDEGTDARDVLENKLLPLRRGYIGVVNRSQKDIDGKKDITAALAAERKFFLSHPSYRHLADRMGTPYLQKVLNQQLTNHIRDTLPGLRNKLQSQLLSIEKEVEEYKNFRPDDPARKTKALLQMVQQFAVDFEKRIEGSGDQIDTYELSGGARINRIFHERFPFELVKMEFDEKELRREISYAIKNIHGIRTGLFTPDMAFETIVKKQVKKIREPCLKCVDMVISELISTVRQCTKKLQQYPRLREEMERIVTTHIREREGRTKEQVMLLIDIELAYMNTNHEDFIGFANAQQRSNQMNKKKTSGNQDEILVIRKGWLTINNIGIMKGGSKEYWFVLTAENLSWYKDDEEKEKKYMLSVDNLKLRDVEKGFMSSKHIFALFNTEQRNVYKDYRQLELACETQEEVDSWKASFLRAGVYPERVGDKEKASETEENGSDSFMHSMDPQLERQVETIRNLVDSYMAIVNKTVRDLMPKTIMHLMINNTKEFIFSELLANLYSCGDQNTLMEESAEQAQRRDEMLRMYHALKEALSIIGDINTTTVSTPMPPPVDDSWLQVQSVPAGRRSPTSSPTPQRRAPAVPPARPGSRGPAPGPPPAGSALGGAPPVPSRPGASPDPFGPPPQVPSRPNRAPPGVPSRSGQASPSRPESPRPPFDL
UniProt Q96FX2: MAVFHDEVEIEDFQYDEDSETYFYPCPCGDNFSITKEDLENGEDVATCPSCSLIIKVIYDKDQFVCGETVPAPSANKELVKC

Columns and labels:
Experiment in all cases: log2 fold change, soluble protein after heating vs DMSO (PISA); higher = thermal stabilisation; K562 cells, 10 uM, 30 min; active = over 0.2 and 3.5 SD of the protein, either way, in both replicates (recomputed)
erlotinib = compound: C#Cc1cccc(Nc2ncnc3cc(OCCOC)c(OCCOC)cc23)c1 [erlotinib]
Summary of the method: (§1)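 Values are thermal stability changes relative to control samples and are taken from duplicates. They are stated as log2 fold changes. Before quantification by TMTpro 16plex LC-MS/MS with equalised channel sums, K562 cells at 2×10^6 cells/mL were treated with 10 μM compound for 30 min, heated in aliquots for 3 min across 48°C-58°C, pooled, extracted in PBS with 0.5% NP-40 at 4°C, and centrifuged at 21,000xg for 90 min to give the soluble supernatant.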

[1] = compound: C/C(=N\NC(=O)C1=CC(=CC=C1)S(=O)(=O)N2CCOCC2)/C3=C(C=CC(=C3)Cl)O
Summary of the method: as §1

[2] = compound: C1=CC(=C(C=C1Cl)C2=NC3=NC=CN=C3C(=N2)NC4=CC=NC=C4)F
Summary of the method: as §1

[3] = compound: C1=CC(=CC=C1C2=NC3=C(N2)C=C(C=C3)C(=O)N)OC4=CC=C(C=C4)Cl
Summary of the method: as §1

[4] = compound: C1=CC2=C(C=CC(=C2)/C=C\3/C(=O)NC(=NCC4=CC=CS4)S3)N=C1
Summary of the method: as §1

[5] = compound: C1=CC2=NC=CN=C2C=C1/C=C/3\C(=O)NC(=O)S3
Summary of the method: as §1

[6] = compound: C1=CC=C(C=C1)C2=NC(=C(N2)C3=CC=NC=C3)C4=CC(=C(C=C4)Cl)O
Summary of the method: as §1

[7] = compound: C1=CC=C2C(=C1)C3=NNC4=CC=CC(=C43)C2=O
Summary of the method: as §1

[8] = compound: C1CCN(C1)C(=O)NC2=CC=CC(=C2)NC3=NC=C(C(=N3)NCCC4=CN=CN4)Br
Summary of the method: as §1

[9] = compound: C1CN(CCC1(CC2=CC=C(C=C2)Cl)N)C3=NC=NC4=C3C=CN4
Summary of the method: as §1

Measured: log2 fold change

DPY19L4 (UniProt Q7Z388)
inactive: erlotinib 0.033 | [1] 0.153 | [2] -0.102 | [3] -0.064 | [4] -0.05 | [5] -0.001 | [6] 0.036 | [7] 0.296 | [8] -0.223 | [9] 0.116

DYSF isoform 13 (UniProt O75923)
inactive: erlotinib -0.1 | [1] -0.057 | [2] -0.201 | [3] 0.1 | [4] 0.036 | [5] -0.099 | [6] 0.015 | [7] -0.029 | [8] -0.197 | [9] 0.21

EDEM2 (UniProt Q9BV94)
inactive: erlotinib -0.025 | [1] 0.023 | [2] -0.009 | [3] 0.09 | [4] 0.132 | [5] -0.318 | [6] 0.012 | [7] 0.081 | [8] -0.018 | [9] 0.05

DYNC1I2 isoform 5 (UniProt Q13409)
inactive: erlotinib -0.009 | [1] -0.016 | [2] -0.033 | [3] 0.003 | [4] 0.025 | [5] -0.006 | [6] 0.057 | [7] 0.016 | [8] 0.007 | [9] 0.018

DTYMK (UniProt P23919)
inactive: erlotinib -0.007 | [1] 0.025 | [2] 0.013 | [3] 0.04 | [4] -0.027 | [5] 0.044 | [6] -0.017 | [7] 0.095 | [8] 0.015 | [9] 0.016

ECHDC1 (UniProt Q9NTX5)
inactive: erlotinib 0.022 | [1] 0.005 | [2] 0.022 | [3] -0.01 | [4] 0.009 | [5] 0.018 | [6] -0.03 | [7] -0.007 | [8] 0.021 | [9] 0.028

DTL (UniProt Q9NZJ0)
inactive: erlotinib -0.098 | [1] 0.061 | [2] 0.033 | [3] -0.044 | [4] 0.101 | [5] 0.124 | [6] -0.048 | [7] -0.149 | [8] -0.044 | [9] 0.017

DUSP12 (UniProt Q9UNI6)
inactive: erlotinib 0.057 | [1] 0.044 | [2] -0.058 | [3] -0.04 | [4] 0.019 | [5] 0.056 | [6] 0.014 | [7] 0.018 | [8] 0.088 | [9] -0.046

DNAJC9 (UniProt Q8WXX5)
inactive: erlotinib 0.019 | [1] 0.039 | [2] 0.037 | [3] -0.003 | [4] 0.061 | [5] -0.025 | [6] -0.035 | [7] 0 | [8] 0.065 | [9] -0.023

DNAJC16 (UniProt Q9Y2G8)
inactive: erlotinib -0.046 | [1] -0.071 | [2] -0.355 | [3] 0.119 | [4] -0.503 | [5] 0.233 | [7] -0.187 | [8] 0.119 | [9] 0.05

ECD isoform 3 (UniProt O95905)
inactive: erlotinib 0.012 | [2] -0.059 | [3] 0.015 | [5] 0.027 | [6] 0.025 | [8] 0.031 | [9] -0.049

DOLK (UniProt Q9UPQ8)
inactive: erlotinib -0.122 | [1] 0.089 | [2] 0.114 | [3] -0.023 | [4] -0.278 | [5] 0.2 | [7] -0.385

DOLPP1 (UniProt Q86YN1)
inactive: erlotinib 0.049 | [1] 0.039 | [3] 0.009 | [4] -0.165 | [5] 0.074 | [6] 0.17 | [7] 0.011 | [8] -0.088 | [9] 0.001

Reprinted at random: two records from the list.
DNAJC16 (UniProt Q9Y2G8)
inactive: erlotinib -0.046 | [1] -0.071 | [2] -0.355 | [3] 0.119 | [4] -0.503 | [5] 0.233 | [7] -0.187 | [8] 0.119 | [9] 0.05

DNAJC9 (UniProt Q8WXX5)
inactive: erlotinib 0.019 | [1] 0.039 | [2] 0.037 | [3] -0.003 | [4] 0.061 | [5] -0.025 | [6] -0.035 | [7] 0 | [8] 0.065 | [9] -0.023

Remaining list, next part

DOP1A (UniProt Q5JWR5)
inactive: erlotinib 0.177 | [2] 0.009 | [3] -0.152 | [5] 0.035

DNAJC10 (UniProt Q8IXB1)
inactive: erlotinib 0.004 | [1] -0.04 | [2] -0.147 | [3] 0.005 | [4] -0.115 | [5] -0.032 | [6] 0.061 | [7] 0.048 | [8] -0.04 | [9] -0.013

DTD2 (UniProt Q96FN9)
inactive: erlotinib 0.068 | [1] 0.11 | [2] -0.075 | [3] -0.161 | [4] 0.066 | [7] -0.084 | [8] -0.03 | [9] 0.204

DNAJB1 (UniProt P25685)
inactive: erlotinib 0.005 | [1] 0.017 | [2] 0.012 | [3] 0.008 | [4] 0.024 | [5] 0.053 | [6] 0.024 | [7] -0.025 | [8] -0.019 | [9] 0.009

ECPAS (UniProt Q5VYK3)
inactive: erlotinib 0.058 | [1] 0.087 | [2] 0.001 | [3] -0.06 | [4] 0.042 | [5] 0.009 | [6] 0.048 | [7] -0.01 | [8] -0.028 | [9] -0.018

DNPH1 (UniProt H0Y8X4)
inactive: erlotinib -0.02 | [1] -0.332 | [3] 0.016 | [4] 0.201 | [6] -0.341 | [7] 0.085 | [8] -0.087 | [9] 0.219

DNASE1L1 (UniProt P49184)
inactive: erlotinib 0.072 | [1] -0.097 | [3] 0.159 | [4] 0.126 | [7] -0.013

DYNC1I2 isoform 2 (UniProt Q13409)
inactive: erlotinib 0.018 | [1] 0.155 | [2] 0.057 | [3] -0.056 | [4] -0.202 | [5] -0.013 | [6] 0.17 | [7] 0.057 | [8] -0.062 | [9] 0.029

DNM1L isoform 2 (UniProt O00429)
inactive: erlotinib -0.09 | [1] -0.03 | [3] 0.095 | [4] -0.151 | [5] 0.036 | [6] -0.135 | [7] 0.048 | [8] -0.012 | [9] 0.029

DNM2 isoform 4 (UniProt P50570)
inactive: erlotinib 0.042 | [2] 0.084 | [3] -0.128 | [5] 0.261 | [6] -0.008

DUSP14 (UniProt O95147)
inactive: erlotinib 0.12 | [1] -0.077 | [2] -0.092 | [3] -0.017 | [4] 0.047 | [5] -0.081 | [7] -0.124 | [8] 0.119 | [9] 0.305

EEA1 (UniProt Q15075)
inactive: erlotinib 0 | [1] -0.016 | [2] 0.046 | [3] 0.003 | [4] 0.01 | [5] 0.046 | [6] -0.046 | [7] -0.031 | [8] 0.009 | [9] 0.05

DNM1L isoform 6 (UniProt O00429)
inactive: erlotinib 0.058 | [1] 0.008 | [2] 0.103 | [3] -0.006 | [4] 0.082 | [5] 0.01 | [6] 0.049 | [7] 0.006 | [8] 0.004 | [9] 0.036

DNM1 (UniProt Q05193)
inactive: erlotinib 0.06 | [2] -0.144 | [3] -0.152

DOK1 (UniProt Q99704)
inactive: erlotinib 0.177 | [1] -0.024 | [2] 0.28 | [3] 0.145 | [4] 0.051 | [5] -0.349 | [7] -0.034 | [8] 0.01 | [9] -0.033

EAPP (UniProt Q56P03)
inactive: erlotinib -0.073 | [1] 0.077 | [3] -0.035 | [4] -0.123 | [6] 0.032 | [7] 0.046 | [8] 0 | [9] 0.106

DPH6 (UniProt Q7L8W6)
inactive: erlotinib -0.02 | [1] 0.131 | [2] 0.001 | [3] -0.004 | [4] 0.045 | [5] -0.006 | [6] 0.003 | [7] 0.004 | [8] 0.044 | [9] -0.01

DOK3 (UniProt Q7L591)
inactive: erlotinib -0.001 | [1] 0.174 | [2] 0.112 | [3] -0.063 | [4] -0.052 | [5] -0.141 | [7] 0.041 | [8] -0.176 | [9] 0.11

DPH3 (UniProt Q96FX2)
inactive: erlotinib -0.061 | [1] 0.076 | [2] -0.03 | [3] -0.012 | [4] 0.086 | [5] -0.051 | [7] -0.022 | [8] -0.244 | [9] -0.096

DNAJC1 (UniProt Q96KC8)
inactive: erlotinib 0.001 | [1] 0.096 | [2] 0.059 | [3] 0.014 | [4] 0.082 | [5] 0.004 | [6] -0.021 | [7] -0.022 | [8] -0.001 | [9] 0.027

DNPEP (UniProt B9ZVU2)
inactive: erlotinib -0.109 | [1] 0.01 | [3] -0.171 | [4] -0.132 | [7] -0.063 | [8] 0.037 | [9] 0.139
